# PMC9510782
# Sequences of proteins named here, by UniProt entry; tags and fusion partners are left off.
# UniProt P22366: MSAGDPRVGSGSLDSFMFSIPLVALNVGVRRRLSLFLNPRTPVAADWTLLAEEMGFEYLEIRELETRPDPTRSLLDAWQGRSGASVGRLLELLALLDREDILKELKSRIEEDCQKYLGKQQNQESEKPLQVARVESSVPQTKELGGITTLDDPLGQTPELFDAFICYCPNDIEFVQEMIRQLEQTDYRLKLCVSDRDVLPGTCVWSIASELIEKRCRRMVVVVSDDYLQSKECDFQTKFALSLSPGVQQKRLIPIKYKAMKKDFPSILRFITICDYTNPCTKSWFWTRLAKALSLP
# These are yes or no findings as the source states them, for the method shown. Binding seen in cells or lysates may run through a third protein. Some entries that bind do so weakly or less than the wild type. Tags and fused reporters may be left off the sequences shown.
# B1: FLAG-tagged Dok3 (full-length) (protein, UniProt Q9QZK7 1-444)
# chain: MESVEPPVKDGILYQQHVKFGKKCWRKVWALLYAGGPSGVARLESWDVRDGGLGPAGDRSTGPSRRGERRVIRLADCVSVLPADGESCPRDTGAFLITTTERSHLLAAQHRQSWVDPICQLAFPGTGECSSGSGQAESPKRGFVPMEENSIYSSWQEVTEFPVIVQRTEATSRCQLKGPYLLVLGQDDIQLRETSKPQACFSWPYRFLRKYGSDKGVFSFEAGRRCDSGEGLFAFSSPRAPDICGVVAAAIARQRERLPELAMSPPCPLPRALSLPSLEPPGELREVAPGFELPTPRKLPLTDPGPQSLPLLLSPTQEGPASGLYASVCKQTSKHTGTAEHLYENVCMLEASPGLTNGGPEAQEGPPGGRSPLGSPIYHNTEDLSWPGSAQDSNLEAQYRRLLELELDEAGSAGRSGAQAGIKAKLVTLLTRERKKGPAPCDRP
# B2: FLAG-tagged Dok3 truncation variant bearing the PH domain (domain or fragment, UniProt Q9QZK7 7-123)
# chain: PVKDGILYQQHVKFGKKCWRKVWALLYAGGPSGVARLESWDVRDGGLGPAGDRSTGPSRRGERRVIRLADCVSVLPADGESCPRDTGAFLITTTERSHLLAAQHRQSWVDPICQLAF
# Target: HA-tagged MyD88 (UniProt P22366)
# Experiment: co-IP; HEK293T cells co-transfected with HA-MyD88 and FLAG-Dok3 or its truncation variants (and His-SHP-2); lysates IP with anti-HA; blotted with anti-HA, anti-FLAG, anti-His
row,Binder,binding
1,B1,binds
2,B2,binds
